Assay: in vitro
Settings: pig, PAMPA, pH 7.4
Excerpt: The above-referenced commercial compounds, phosphate buffer at pH=7.4 (PBS), Ethanol and dodecane were obtained from the commercial houses Sigma, Acros organics, Merck, Aldrich and Fluka, respectively. […] To filter the samples, PVDF membrane filters were used (30 mm diameter, 0.45 μm pore size) from the company Symta. The equipment used to measure UV absorbance in 96-well plates was a Thermoscientific Multiskan spectrum.
Ten reference compounds were selected, whose blood-brain barrier passage is known, in order to validate the experiment. […] The solutions were filtered. Next, 180 μL of a PBS/EtOH (70/30) solution were added to each well of the acceptor plate. The donor plate was impregnated with 4 μL of a pig brain lipid solution dissolved in dodecane (20 mg mL^−1). After 5 minutes, 180 μL of solution of each compound were added on this plate. Of the compounds whose penetration in the central nervous system is being evaluated, between 1-2 mg were taken and dissolved in 1,500 μL of EtOH and 3,500 μL of PBS phosphate buffer (pH=7.4), filtered and added to the 96-well donor plate. […] The concentration and absorbance of both the commercial compounds and the synthesised derivatives that were evaluated in the acceptor and donor plates were determined using a UV absorbance reader. Each sample was analysed at 2 to 5 wavelengths, in at least three wells and in two independent experiments. […]

Q: Which Papp at 2.5 h does the source give for `CC(C)NCC(O)COc1ccc(CC(N)=O)cc1` (stereo not shown) [Atenolol, reference compound] here?
A: Its Papp at 2.5 h is 1 ± 0.6 ×10⁻⁶ cm/s.

— patent US11912678B2, “LRRK2 inhibiting compounds and use thereof for treating neurodegenerative diseases” (CONSEJO SUPERIOR DE INVESTIGACIONES CIENTÍFICAS, priority 2018, dated 2024)
